Measurements taken from publication PMC10163288.
The other results are listed elsewhere or left out.

B1: il10ra_site1_normal_mot_HHH_b1_05860_000000142_0001_1_19_H_._HHH_b1_06300_0001_0000200017_0000002_0 (protein)
chain: SSSSTEEVYKLLREAAELLDNGNPEEARKVLEEAREIAEELNNELLEIQLEFLLKDIEEHSSSSS
B2: il10ra_site1_sap_24_mot_HHH_b1_06348_000000162_0001_1_15_H_._HHH_b2_05036_0001_0000200015_0000001_0_0001 (protein)
chain: SSSSDAAEFLLRQAIRALKLAGDEETVEELEELLEEYREKGDERYVQEALHLAAERALELKSSSS
B3: il10ra_site1_normal_mot_HHH_b1_04693_000000238_0001_19_36_H_._HHH_b2_03769_0001_0000100011_0000002_0 (protein)
chain: SSSSSQELYELLREIIELISDGDLEEAEELLEELRKLAEERNNPTIRVQVEFLEKLIRRLLSSSS
B4: il10ra_site1_normal_mot_HHH_b1_01082_af2_000000031_0001_3_19_H_._HHH_b1_00588_af2_0001_0000500037_0000001_0 (protein)
chain: SSSSDESEELLEEAEELLRKLLEEGDPQEAYKVLKKYIELLVELGDAQAALRLARRFQELSSSSS
B5: il10ra_site1_normal_mot_b26a303360aa2756ef5b79665ce52f45_0001_000000179_0001_1_11_H_._HHH_b2_07862_af2_0001_0000100002_0000001_0_af2pred_0001 (protein)
chain: SSSSSALEEIVRLIREALELLAEGNEEEAEEVLEEAEKLARENNNPLAEHIIRFLLRSIGSSSSS
B6: il10ra_site1_normal_mot_HHH_b2_03425_000000200_0001_22_39_H_._HHH_b1_08292_0001_0000100014_0000001_0 (protein)
chain: SSSSSSEEEERVERLLERLEEITDAEEFYEVVREIIELISELGNEELLRLLMRILRRFFSSSSSS
B7: il10ra_site1_sap_14_mot_HHH_b2_00099_af2_000000010_0001_1_19_H_._ems_3hC_453_0002_0001_0000400024_0000002_0_0001 (protein)
chain: SSSSSDEEEEVEKLLEEAEKIEDHEERLRVLLEALRLAFRLQNPELLQKVWEVFRRLAGSSSSSS
B8: il10ra_site1_normal_mot_HHH_b2_07569_000000265_0001_38_56_H_._HHH_b1_06669_0001_0000100001_0000001_0 (protein)
chain: SSSSELEKEIEELLEELKRLVEEGDVREASELALEIVQLIFELGDEELVQEVWELAKLAFERSSS
B9: il10ra_site1_sap_22_mot_HHH_b1_07806_000000011_0001_1_18_H_._HHH_b2_05025_af2_0001_0000400012_0000001_0_0001_af2pred_0001 (protein)
chain: SSSSDMEEKLKLALKFIEFLIEQGDEEAARRLIRAAEDIARRLGNEEILERLEELLERLNSSSSS
B10: il10ra_site1_sap_16_mot_HHH_b2_07873_af2_000000172_0001_1_19_H_._HHH_b1_08172_af2_0001_0000100006_0000001_1_0001 (protein)
chain: SSSSNEVLRIAEEAVELLHELLKRGDEEEAEEVLREARELLEELGNQLAVESLEYMFRSDSSSSS
B11: il10ra_site1_sap_23_mot_HHH_b2_06571_000000054_0001_42_56_H_._HHH_b1_02406_0001_0000500066_0000002_0_0001 (protein)
chain: SSSSDEEREAFELMVEAYLLANQGDPEEAREVLEEAEEVAERGNDRALVLAIEINLERLESSSSS
B12: il10ra_site1_sap_25_mot_HHH_b2_02315_000000136_0001_19_35_H_._HHH_b1_00431_0001_0000100007_0000002_0_0001 (protein)
chain: SSSSSDEEEEEVERLLEEAKHIEDRERAIELLLRASRLAWELGNKELARAVDQLAIKLFQSSSSS
B13: il10ra_site1_sap_16_mot_HHH_b2_02736_000000092_0001_22_38_H_._HHH_b2_04483_af2_0001_0000100003_0000002_0_0001_af2pred_0001 (protein)
chain: SSSSSEEEEVLKLVAEALALAQRLGDHETAEELFKLLAEAFATNDPKLFEEAEELAREILGSSSS
B14: il10ra_site1_normal_mot_8756ee2cf497b5429c717dfc0c0bcfd6_0001_000000186_0001_1_13_H_._HHH_b1_06748_af2_0001_0000300014_0000001_0 (protein)
chain: SSSSDELSEEVIELLREAAELHRNGNPEEARKVLEEAEELAEENNNDVLLAQIEYLQRLLDSSSS
B15: il10ra_site1_normal_mot_HHH_b1_08446_000000041_0001_1_19_H_._HHH_b2_00614_0001_0000100009_0000001_1 (protein)
chain: SSSSSDAEEEVEELLEEAKRVDDPDERYELLKEAIELASEANDQELFRLIIEVLRELLHSSSSSS
B16: il10ra_site1_sap_26_mot_HHH_b1_01707_000000240_0001_1_17_H_._HHH_b2_07405_0001_0000500060_0000001_0_0001 (protein)
chain: SSSSDQEFARLMMEALHLAFQLRDPETLRELWELYRRYAEEGDPRYEEALEELLEELRERSSSSS
B17: il10ra_site1_sap_23_mot_HHH_b1_03763_000000278_0001_22_38_H_._HHH_b1_03304_0001_0000100006_0000001_0_0001 (protein)
chain: SSSSDEASREIYELLREAAELDHEGDKEEARRLIEEAQELAEEANDRVLLAVLEVLLKQLRSSSS
B18: il10ra_site1_sap_22_mot_HHH_b2_00943_af2_000000149_0001_1_17_H_._HHH_b2_03328_0001_0000400021_0000001_0_0001 (protein)
chain: SKEEKLEELAEEAGVPPEELKVILRAAEIVAGGDPRRIARLVEIQLRMAGNFSPELRELLEELIR
B19: il10ra_site1_sap_17_mot_2fa031a62b9321f410fa37cb4b35ac9e_0001_af2_000000160_0001_1_14_H_._HHH_b2_02757_af2_0001_0000100001_0000002_0_0001_af2pred_0001 (protein)
chain: SSSSSEEQEEIRKLLEEALKLAREGNPEEAREVLEEALRLAEEAGDTTLAFQVRFLLELLSSSSS
B20: il10ra_site1_sap_14_mot_HHH_b1_02136_af2_000000018_0001_38_52_H_._HHH_b2_04267_0001_0000400040_0000001_0_0001 (protein)
chain: SSSSDARFLVRQAFKAARLVIEQGDEERAEVALRNLESLARINNDEEAEKLLKELEELLGSSSSS
B21: il10ra_site1_normal_mot_HHH_b2_01235_000000294_0001_1_18_H_._HHH_b1_06902_0001_0000600047_0000001_0 (protein)
chain: SSSSSESQELYELLRRISELDHEGNKEEARELIEELQKLIEELNNLNARAVLEALERLVNSSSSS
B22: il10ra_site1_normal_mot_9368472692dc9678e81f248f6367350b_0001_000000260_0001_20_35_H_._HHH_b2_02427_0001_0000200010_0000001_0 (protein)
chain: SSSSSDREEVLELSLEALRLALRGNPEEARKVLEEAAELAEELGDERLLRVIESLLEVLNSSSSS
B23: il10ra_site1_sap_19_mot_HHH_b1_00814_af2_000000078_0001_43_57_H_._HHH_b2_02041_0001_0000100001_0000002_0_0001 (protein)
chain: SSSSSSEAEQHARALLWFARLVSNPEARRIMLELAEEAAEEAGDEELLEEIEEELRKVGSSSSSS
B24: il10ra_site1_normal_mot_HHH_b2_02386_000000054_0001_1_20_H_._HHH_b2_05043_0001_0000500092_0000003_0 (protein)
chain: SSSSTDESYELLRRAIEEVIRLYKEGNPEEAKKVVEEVFRELEELGNPLAARQLEFLRRLLSSSS

What follows are binders tested against il10ra, Q13651 (assay: yeast display titration).

Binder	apparent Kd
B1	inactive: no binding seen
B2	inactive: no binding seen
B3	inactive: no binding seen
B4	inactive: no binding seen
B5	inactive: no binding seen
B6	inactive: no binding seen
B7	inactive: > 38.5 nM
B8	inactive: no binding seen
B9	inactive: no binding seen
B10	inactive: no binding seen
B11	inactive: no binding seen
B12	inactive: no binding seen
B13	inactive: no binding seen
B14	inactive: no binding seen
B15	inactive: no binding seen
B16	inactive: no binding seen
B17	inactive: no binding seen
B18	inactive: no binding seen
B19	inactive: no binding seen
B20	inactive: no binding seen
B21	inactive: no binding seen
B22	inactive: no binding seen
B23	inactive: no binding seen
B24	inactive: no binding seen

Taken from above:
Entry for B3 under apparent Kd: inactive: no binding seen
Entry for B11 under apparent Kd: inactive: no binding seen
